# Laboratory results as given in publication PMC10919858.
# No constants are given. Whether binding was seen depends on the method and setting. Binding seen in cells or lysates may run through a third protein. Some binding calls cover weakened binding; strength is not graded here. Where a sequence is shown, tags or fusion partners need not be part of it.
# T1: TRIM72-flag (mouse) (UniProt Q1XH17)
# T1 sequence: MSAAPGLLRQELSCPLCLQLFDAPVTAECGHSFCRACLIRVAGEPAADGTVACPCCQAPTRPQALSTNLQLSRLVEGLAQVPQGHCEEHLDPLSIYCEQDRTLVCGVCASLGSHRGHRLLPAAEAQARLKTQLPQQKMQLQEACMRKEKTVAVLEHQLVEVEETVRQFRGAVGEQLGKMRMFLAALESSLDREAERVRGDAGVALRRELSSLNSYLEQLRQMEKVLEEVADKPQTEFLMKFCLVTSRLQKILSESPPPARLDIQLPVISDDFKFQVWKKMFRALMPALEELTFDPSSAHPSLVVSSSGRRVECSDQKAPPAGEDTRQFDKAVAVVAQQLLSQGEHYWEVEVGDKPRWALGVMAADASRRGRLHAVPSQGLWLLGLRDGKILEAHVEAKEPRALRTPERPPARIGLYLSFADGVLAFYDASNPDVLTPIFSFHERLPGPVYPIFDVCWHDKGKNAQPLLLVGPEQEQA
# B1: LBV-M-HA (protein, UniProt Q6JAM6 1-202)
# chain: MNFLRKIVKNCKDEEIPKPGTPSAPPDDDDLWMPPPEYVPLTQIKGKENVRNFCINGEIKICSPNGYSFRILRHILKSFDNVYSGNRRLIGVVKVVIGLVLSASPVPEGMNWVYKLRRTLIFQWAESHGPLEGEELEYSQEITWDDEAEFVSLQIRVSAKQCHIQGRLWCINMNSKACQLWADMGLKTQQSQEDENTSLLLE
# Target: T1, TRIM72-flag (mouse)
# Test: co-IP
binder,measurement,value
B1,binding,binds
